Experimental data from paper PMC4813576, “Mit1 Transcription Factor Mediates Methanol Signaling and Regulates the Alcohol Oxidase 1 (AOX1) Promoter in Pichia pastoris*”.
For some assays here: Negatives hold for the conditions tested. For some assays here: At least one verdict rests on a figure or table, not on a statement of the authors. Tags and fusion partners may be left off the protein sequences shown.

How the values were obtained:
[1] = biological target: T1, Prm1 ZF domain (Pichia pastoris (Komagataella pastoris)) (UniProt C4R754); assay: EMSA; conditions: EMSA: 50 mM Tris-HCl pH 8.0, 50 mM NaCl, 1 mM DTT, 0.05% NP-40, 50 ug/ml poly[d(I-C)], 5% glycerol, 30 min at 4 C; about 30 nM probe, 0-1 uM protein; recombinant protein; protein details: His6; label: Cy5 (5' of forward primer); probe letters rebuilt from the primers and the genome
T1 sequence (looked up, limits assumed): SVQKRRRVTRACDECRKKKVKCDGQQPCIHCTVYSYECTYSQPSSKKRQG

[2] = biological target: T2, Mit1 ZF domain (Pichia pastoris (Komagataella pastoris)) (UniProt C4R5Q1); assay: EMSA; conditions: EMSA: 50 mM Tris-HCl pH 8.0, 50 mM NaCl, 1 mM DTT, 0.05% NP-40, 50 ug/ml poly[d(I-C)], 5% glycerol, 30 min at 4 C; about 30 nM probe, 0-1 uM protein; recombinant protein; residues 1-150; protein details: His6; label: Cy5 (5' of forward primer); probe letters rebuilt from the primers and the genome
T2 sequence (looked up): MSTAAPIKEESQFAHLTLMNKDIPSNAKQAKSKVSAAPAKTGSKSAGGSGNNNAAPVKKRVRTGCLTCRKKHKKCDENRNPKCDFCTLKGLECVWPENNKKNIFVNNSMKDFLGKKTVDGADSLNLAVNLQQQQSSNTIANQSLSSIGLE

| Sequence | binding result [1] | binding result [2] |
| --- | --- | --- |
| GAGGGTGCGGTGGTGGGGGAATAAGCAGAACTGTAGATTTGACCAATCATCGTCACGTCTTACATCACAGAACGGGGGTACAGAAAGGGAATGAACGTAGAAGTGGAGTGAGGAGAGGAGAGGAGGAAGAGCGAGCAGATTAATTAGATAAAAACCACCCCTCCAAATCTGTTATTGTGTATCAAGTTTACGATTTTTCTCCTCCTTCAATCTCGCTCGCTGGCCAATGTCTGTTATCCTCCGTCCATGGGTTCTTCCCGTTCCGCTCTATCCGATAAGAGGTTGGCTTCCGAGAAGGTTGGTAGTTGGAATGACGTACAAAATGTACAACAAAGCAGATGTTGTTTAGC (double strand) [PMIT1-C] | binds | – |
| GATAGCACTCTGGATTGATCAGAAACTTCATATCCGGAGACAGATACTTGTCTGTCTTGCATATGGGGCAATATTCTTCAGTATCCATCCGATGATTACGATTAGTATTAGGTTGATGAATAATCCATAATGGTCCCCTGATGGAATATGCTCGCGAAGA (double strand) [PPRM1-A] | – | no binding |
